Results on two compounds are retold here after paper PMC9120013, “Ribosome inhibition by C9ORF72-ALS/FTD-associated poly-PR and poly-GR proteins revealed by cryo-EM” (Nature Communications, 2022).

Ends that are not written are not given here.

This series concerns rabbit 80S ribosomes. The experiment in a line: Cryo-EM maximum-likelihood classification of rabbit 80S complexes. The format is binding, Oryctolagus cuniculus. The conditions noted are these: for percentage of ribosomes: Non-rotated, weak P/P tRNA / percentage of ribosomes: Rotated, P/E-tRNA / percentage of ribosomes: Non-rotated, P/P tRNA: 5 µM DPR; for percentage of ribosomes: Non-rotated, weak P/P tRNA: buffer 0.0; for percentage of ribosomes: Rotated, P/E-tRNA: buffer 12.3; for percentage of ribosomes: Non-rotated, P/P tRNA: buffer 80.9; for increase of ribosomes in the rotated state with P/E tRNA: versus buffer control.

`N=C(N)NCCC[C@H](NC(=O)CNC(=O)[C@H](CCCNC(=N)N)NC(=O)CNC(=O)[C@H](CCCNC(=N)N)NC(=O)CNC(=O)[C@H](CCCNC(=N)N)NC(=O)CNC(=O)[C@H](CCCNC(=N)N)NC(=O)CNC(=O)[C@H](CCCNC(=N)N)NC(=O)CNC(=O)[C@H](CCCNC(=N)N)NC(=O)CNC(=O)[C@H](CCCNC(=N)N)NC(=O)CNC(=O)[C@H](CCCNC(=N)N)NC(=O)CNC(=O)[C@H](CCCNC(=N)N)NC(=O)CNC(=O)[C@H](CCCNC(=N)N)NC(=O)CNC(=O)[C@H](CCCNC(=N)N)NC(=O)CNC(=O)[C@H](CCCNC(=N)N)NC(=O)CNC(=O)[C@H](CCCNC(=N)N)NC(=O)CNC(=O)[C@H](CCCNC(=N)N)NC(=O)CNC(=O)[C@H](CCCNC(=N)N)NC(=O)CNC(=O)[C@H](CCCNC(=N)N)NC(=O)CNC(=O)[C@H](CCCNC(=N)N)NC(=O)CNC(=O)[C@H](CCCNC(=N)N)NC(=O)CNC(=O)[C@H](CCCNC(=N)N)NC(=O)CN)C(=O)O` [GR20]: the “percentage of ribosomes: Non-rotated, weak P/P tRNA” value stood at 22.1%; the “percentage of ribosomes: Rotated, P/E-tRNA” value stood at 18.9%; the “percentage of ribosomes: Non-rotated, P/P tRNA” value came out at 52.1%; the “increase of ribosomes in the rotated state with P/E tRNA” value came out at 1.5 fold.

On to “PRPRPRPRPRPRPRPRPRPRPRPRPRPRPRPRPRPRPRPR [PR20]”, for which the “percentage of ribosomes: Non-rotated, weak P/P tRNA” value is on record as 0.0%; the “percentage of ribosomes: Rotated, P/E-tRNA” value turned out to be 25.0%; the “percentage of ribosomes: Non-rotated, P/P tRNA” value was determined as 66.4%; the “increase of ribosomes in the rotated state with P/E tRNA” value is given as 2 fold.
